These are yes or no findings as the source states them, for the method shown. Binding seen in cells or lysates may run through a third protein. A yes stands for co-enrichment or nearness to the bait. Other partners may have been found.

The target in this assay is wtEGFR-TurboID (transient, HEK293T) (UniProt P00533). Nature of the assay: proximity labelling.
As for ARPC1B (from UniProt O15143 1-372), the binding entry is listed as “binds”.

For the substance STAM (from UniProt Q92783 1-540), the binding result is “binds”.

As for STAT2 (from UniProt P52630 1-851), the binding entry is reported as “binds”.

Turning to MYO6 (from UniProt Q9UM54 1-1294), the binding entry is “binds”.

Gab2 (from UniProt Q9UQC2 1-676): the binding result is “binds”.

Regarding “deubiquitinase BRCC3 (from UniProt P46736 1-316)”, the binding entry is “binds”.

With VPS37A (from UniProt Q8NEZ2 1-397), the binding result is recorded as “binds”.

Regarding MAP4K5 (from UniProt Q9Y4K4 1-846), the binding result is reported as “binds”.

Values taken from publication doi:10.1101/2023.09.13.557663.
